Experimental data reported in paper PMC11925728, “Homeodomain protein PRRX1 anchors the Ku heterodimers at DNA double-strand breaks to promote nonhomologous end-joining”.
These are yes or no findings as the source states them, for the method shown. A result given as binding can be weak or reduced; the word gives no strength. For some assays here: Binding seen in cells or lysates may run through a third protein.

Tests used:
[1] = biological target: FLAG-PB, transiently expressed (UniProt P54821); assay: co-IP; anti-FLAG beads, lysates of transfected HEK293T cells in IP buffer (50 mM Tris-HCl pH 7.5, 150 mM NaCl, 1 mM EDTA, 1% NP-40), overnight at 4°C; DNase I added in one panel; IR or ETP treatment in the panels of FLAG- with EGFP-PRRX1
[2] = biological target: FLAG-PA, transiently expressed (UniProt P54821); assay: as above
MBP-PRRX1B = MBP-PRRX1B (UniProt P54821); assay: pull-down; MBP pull-down on amylose resin: 2.5 μg MBP-PRRX1 with ∼3 μg GST-Ku70/Ku80, 1 μg His-Ku70/Ku80 heterodimer or 2 μg His-PRRX1 in 400 μl NETN buffer (20 mM Tris-HCl pH 8.0, 100 mM NaCl, 0.5 mM EDTA, 0.5% NP-40), 4°C; both purified
MBP-PA ΔN (9–217 aa) = MBP-PA ΔN (9–217 aa) (UniProt P54821); assay: as above
MBP-PRRX1A = assay: pull-down; both purified

EGFP-PB (from UniProt P54821)
binding [1]: binds | binding [2]: binds

His-PRRX1B (from UniProt P54821)
binding (MBP-PRRX1B): binds | binding (MBP-PA ΔN (9–217 aa)): binds

GRKKRRQRRRQALERVFER (biotin at the N-terminus) [competing peptide]
binding (MBP-PRRX1A): binds
